{"source": "PubChem BioAssay AID1508597 | Cure First, 2020", "test": "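Genes whose silencing sensitises or protects ovarian cancer cells against rucaparib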 (primary screen)", "system": "human ovarian carcinoma lines grown from tumours: OCI-P5x (papillary serous) and OCI-C5x (clear cell)", "reagent": "siRNA pool against human genes, 1.25 pmol siRNA per well", "time to read-out": "72 h or 96 h, depending on the cell culture", "conditions": "rucaparib 20 µM (about IC30) or vehicle, present until read-out", "rucaparib or vehicle": "Vehicle", "cell line": "OCI-P5x (serous)", "measurement": "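Luminescent ATP-based viability assay read 72 or 96 h after transfection, depending on culture, given as normalised percent viability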", "reading the numbers": "viability, normalised: higher = more viable cells remaining", "active means": "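Active when normalised viability falls below 80 percent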", "meaning of the calls": "active = viability under 80%; inactive = viability 80% or more", "note": "This is a random part of the about 2,100 reagents, in one setting of the screen. 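Calls flag viability under 80% in either arm, not effects specific to rucaparib; the reference for percent is not stated.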 Some reagents were tested in more than one well and are listed for each. The record does not give: the 100% reference."}
The opening 3 entries, to show the layout:
{"gene symbol": "CSNK1E", "technical replicate": "1", "viability, normalised (%)": 82.2, "activity call": "inactive"}
{"gene symbol": "CSNK1E", "technical replicate": "1", "viability, normalised (%)": 75.4, "activity call": "active"}
{"gene symbol": "CSNK1E", "technical replicate": "1", "viability, normalised (%)": 77.7, "activity call": "active"}

Results, repeating the preview:
{"gene symbol": "CSNK1E", "technical replicate": "1", "viability, normalised (%)": 82.2, "activity call": "inactive"}
{"gene symbol": "CSNK1E", "technical replicate": "1", "viability, normalised (%)": 75.4, "activity call": "active"}
{"gene symbol": "CSNK1E", "technical replicate": "1", "viability, normalised (%)": 77.7, "activity call": "active"}
{"gene symbol": "CSNK1E", "technical replicate": "2", "viability, normalised (%)": 78.1, "activity call": "active"}
{"gene symbol": "CSNK1E", "technical replicate": "2", "viability, normalised (%)": 93.7, "activity call": "inactive"}
{"gene symbol": "CSNK1E", "technical replicate": "2", "viability, normalised (%)": 76.6, "activity call": "active"}
{"gene symbol": "CSNK1E", "technical replicate": "3", "viability, normalised (%)": 87.9, "activity call": "inactive"}
{"gene symbol": "CSNK1E", "technical replicate": "3", "viability, normalised (%)": 102, "activity call": "inactive"}
{"gene symbol": "CSNK1E", "technical replicate": "3", "viability, normalised (%)": 78.5, "activity call": "active"}
{"gene symbol": "UBR7", "technical replicate": "1", "viability, normalised (%)": 74.7, "activity call": "active"}
{"gene symbol": "UBR7", "technical replicate": "2", "viability, normalised (%)": 49.7, "activity call": "active"}
{"gene symbol": "UBR7", "technical replicate": "3", "viability, normalised (%)": 75.6, "activity call": "active"}
{"gene symbol": "PRMT8", "technical replicate": "1", "viability, normalised (%)": 43.8, "activity call": "active"}
{"gene symbol": "PRMT8", "technical replicate": "2", "viability, normalised (%)": 28.3, "activity call": "active"}
{"gene symbol": "PRMT8", "technical replicate": "3", "viability, normalised (%)": 81.7, "activity call": "inactive"}
{"gene symbol": "DAPK3", "technical replicate": "1", "viability, normalised (%)": 82.9, "activity call": "inactive"}
{"gene symbol": "DAPK3", "technical replicate": "1", "viability, normalised (%)": 54.2, "activity call": "active"}
{"gene symbol": "DAPK3", "technical replicate": "2", "viability, normalised (%)": 79.6, "activity call": "active"}
{"gene symbol": "DAPK3", "technical replicate": "2", "viability, normalised (%)": 62.9, "activity call": "active"}
{"gene symbol": "DAPK3", "technical replicate": "3", "viability, normalised (%)": 79.2, "activity call": "active"}
{"gene symbol": "DAPK3", "technical replicate": "3", "viability, normalised (%)": 59, "activity call": "active"}
{"gene symbol": "ZCWPW2", "technical replicate": "1", "viability, normalised (%)": 45.6, "activity call": "active"}
{"gene symbol": "ZCWPW2", "technical replicate": "2", "viability, normalised (%)": 52.5, "activity call": "active"}
{"gene symbol": "ZCWPW2", "technical replicate": "3", "viability, normalised (%)": 57.8, "activity call": "active"}
{"gene symbol": "PASK", "technical replicate": "1", "viability, normalised (%)": 58.4, "activity call": "active"}
{"gene symbol": "PASK", "technical replicate": "2", "viability, normalised (%)": 50.5, "activity call": "active"}
{"gene symbol": "PASK", "technical replicate": "3", "viability, normalised (%)": 56.9, "activity call": "active"}
{"gene symbol": "SUCLA2", "technical replicate": "1", "viability, normalised (%)": 77.8, "activity call": "active"}
{"gene symbol": "SUCLA2", "technical replicate": "2", "viability, normalised (%)": 84.4, "activity call": "inactive"}
{"gene symbol": "SUCLA2", "technical replicate": "3", "viability, normalised (%)": 81.2, "activity call": "inactive"}
{"gene symbol": "BAHD1", "technical replicate": "1", "viability, normalised (%)": 76.1, "activity call": "active"}
{"gene symbol": "BAHD1", "technical replicate": "2", "viability, normalised (%)": 95.7, "activity call": "inactive"}
{"gene symbol": "BAHD1", "technical replicate": "3", "viability, normalised (%)": 83, "activity call": "inactive"}
